Some of these results come from one statement about several compounds together.
System: M. tuberculosis H37Rv-GFP
Assay type: cell-based, Mycobacterium tuberculosis
Settings: read-out: average EC50_H37Rv

Q: Which EC50 does the source give for O=C(CCC(F)(F)F)N1CCC(c2ccc(F)cn2)CC1 [Example 17, 4,4,4-trifluoro-1-[4-(5-fluoro-2-pyridyl)-1-piperidyl]butan-1-one] here?
A: < 150 nM

Q: With O=C(CCC(F)(F)F)N1CCC(c2cncc(F)c2)CC1 [Example 3, 4,4,4-trifluoro-1-[4-(5-fluoro-3-pyridyl)-1-piperidyl]butan-1-one] as the compound, how does the EC50 read?
A: < 150 nM

Q: With O=C(CCC(F)(F)F)N1CCC(c2ccc(F)nc2)CC1 [Example 4, 4,4,4-trifluoro-1-[4-(6-fluoro-3-pyridyl)-1-piperidyl]butan-1-one] as the compound, how does the EC50 read?
A: < 150 nM

Q: With O=C(CCC(F)(F)F)N1CCC(c2ncc(F)cc2F)CC1 [Example 13, 1-[4-(3,5-difluoro-2-pyridyl)-1-piperidyl]-4,4,4-trifluoro-butan-1-one] as the compound, how does the EC50 read?
A: < 150 nM

Q: O=C(CCC(F)(F)F)N1CCC(c2cccc(Cl)n2)CC1 [Example 27, 1-(4-(6-chloropyridin-2-yl)piperidin-1-yl)-4,4,4-trifluorobutan-1-one] was tested. Which EC50 did it give?
A: < 150 nM

Q: Which EC50 does the source give for O=C(CCC(F)(F)F)N1CCC(F)(c2cccnc2)CC1 [Example 2, 4,4,4-trifluoro-1-[4-fluoro-4-(3-pyridyl)-1-piperidyl]butan-1-one] here?
A: < 150 nM

Q: With O=C(CCCC(F)(F)F)N1CCC(c2cncc(Cl)c2)CC1 [Example 31, 1-(4-(5-chloropyridin-3-yl)piperidin-1-yl)-5,5,5-trifluoropentan-1-one] as the compound, how does the EC50 read?
A: < 150 nM

Q: With O=C(CCC(F)(F)F)N1CCC(c2cnc(F)c(F)c2)CC1 [Example 23, 1-(4-(5,6-difluoropyridin-3-yl)piperidin-1-yl)-4,4,4-trifluorobutan-1-one] as the compound, how does the EC50 read?
A: < 150 nM

Q: O=C(CCC(F)(F)F)N1CCC(c2cccc(F)n2)CC1 [Example 9, 4,4,4-trifluoro-1-[4-(6-fluoro-2-pyridyl)-1-piperidyl]butan-1-one] was tested. Which EC50 did it give?
A: < 150 nM

Q: Which EC50 does the source give for O=C(CCC(F)(F)F)N1CCC(F)(c2ccccn2)CC1 [Example 33, 4,4,4-trifluoro-1-(4-fluoro-4-(pyridin-2-yl)piperidin-1-yl)butan-1-one] here?
A: < 150 nM

Q: For O=C(CCC(F)(F)F)N1CCC(F)(c2cncc(C(F)(F)F)c2)CC1 [Example 34, 4,4,4-trifluoro-1-(4-fluoro-4-(5-(trifluoromethyl)pyridin-3-yl)piperidin-1-yl)butan-1-one], which EC50 is on record?
A: < 150 nM

Q: For O=C(CCC(F)(F)F)N1CCC(c2cc(C(F)(F)F)ccn2)CC1 [Example 6, 4,4,4-trifluoro-1-[4-[4-(trifluoromethyl)-2-pyridyl]-1-piperidyl]butan-1-one], which EC50 is on record?
A: < 150 nM

Q: Which EC50 does the source give for O=C(CCC(F)(F)F)N1CCC(c2cccc(C(F)(F)F)n2)CC1 [Example 8, 4,4,4-trifluoro-1-[4-[6-(trifluoromethyl)-2-pyridyl]-1-piperidyl]butan-1-one] here?
A: < 150 nM

Q: Which EC50 does the source give for O=C(CCC(F)(F)F)N1CCC(c2ccncc2F)CC1 [Example 26, 4,4,4-trifluoro-1-(4-(3-fluoropyridin-4-yl)piperidin-1-yl)butan-1-one] here?
A: < 150 nM

Q: Which EC50 does the source give for COc1ccc(C2CCN(C(=O)CCC(F)(F)F)CC2)cn1 [Example 10, 4,4,4-trifluoro-1-[4-(6-methoxy-3-pyridyl)-1-piperidyl]butan-1-one] here?
A: < 150 nM

Q: With O=C(CCC(F)(F)F)N1CCC(c2cncc(C(F)(F)F)n2)CC1 [Example 24, 4,4,4-trifluoro-1-(4-(6-(trifluoromethyl)pyrazin-2-yl)piperidin-1-yl)butan-1-one] as the compound, how does the EC50 read?
A: < 150 nM
